Not every detail of the peptide structures is certain; ends, links or a residue may be inferred. Ends that are not written are not given here. Peptide text beside a SMILES is read from it.
Tests used:
fibrin polymerization = fibrin polymerization (Homo sapiens, UniProt P02679); test: Spectrophotometric assay of fibrin polymerization; format: biochemical; conditions: for relative affinity/activity in fibrin polymerization assay: comparison between peptides
human fibrinogen = target: T1, human fibrinogen (Homo sapiens, UniProt P02671+P02675+P02679); test: Washout of fibrinogen-bound peptides by repeated gel filtration, CE peak height; format: binding; conditions: gel filtration washes of fibrinogen-bound material
T1 sequence (P02671 20-629 limits assumed): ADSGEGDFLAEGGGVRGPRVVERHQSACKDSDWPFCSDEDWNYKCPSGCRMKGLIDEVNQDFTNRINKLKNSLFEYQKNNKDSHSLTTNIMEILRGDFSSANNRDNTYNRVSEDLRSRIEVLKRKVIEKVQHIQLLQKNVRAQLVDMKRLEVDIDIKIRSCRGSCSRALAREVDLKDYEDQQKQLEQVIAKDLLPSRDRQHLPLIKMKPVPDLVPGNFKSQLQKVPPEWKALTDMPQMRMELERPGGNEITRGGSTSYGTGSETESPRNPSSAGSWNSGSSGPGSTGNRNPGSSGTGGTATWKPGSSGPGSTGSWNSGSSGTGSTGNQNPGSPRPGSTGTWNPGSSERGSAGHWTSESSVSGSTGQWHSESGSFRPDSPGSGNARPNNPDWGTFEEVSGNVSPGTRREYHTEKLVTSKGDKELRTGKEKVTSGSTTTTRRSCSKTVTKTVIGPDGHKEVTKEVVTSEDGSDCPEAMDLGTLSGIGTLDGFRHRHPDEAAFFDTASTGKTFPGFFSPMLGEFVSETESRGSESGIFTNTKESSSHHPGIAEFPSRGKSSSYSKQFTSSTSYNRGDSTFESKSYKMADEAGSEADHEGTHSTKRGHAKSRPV
T1 sequence (P02675 31-491): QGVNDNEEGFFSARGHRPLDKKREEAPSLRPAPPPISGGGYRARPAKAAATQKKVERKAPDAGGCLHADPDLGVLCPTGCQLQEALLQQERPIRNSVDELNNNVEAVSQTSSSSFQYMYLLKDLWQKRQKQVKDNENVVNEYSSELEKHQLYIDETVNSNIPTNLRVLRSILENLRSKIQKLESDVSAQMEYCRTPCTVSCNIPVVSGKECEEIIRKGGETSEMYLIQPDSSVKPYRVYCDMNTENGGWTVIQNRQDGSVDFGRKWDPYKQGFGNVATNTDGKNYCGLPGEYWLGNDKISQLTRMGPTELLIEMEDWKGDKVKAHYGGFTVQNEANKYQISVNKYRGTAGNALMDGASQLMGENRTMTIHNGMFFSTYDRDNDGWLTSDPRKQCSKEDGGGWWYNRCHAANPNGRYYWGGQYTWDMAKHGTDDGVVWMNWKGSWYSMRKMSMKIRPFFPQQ
T1 sequence (P02679 27-433 limits assumed): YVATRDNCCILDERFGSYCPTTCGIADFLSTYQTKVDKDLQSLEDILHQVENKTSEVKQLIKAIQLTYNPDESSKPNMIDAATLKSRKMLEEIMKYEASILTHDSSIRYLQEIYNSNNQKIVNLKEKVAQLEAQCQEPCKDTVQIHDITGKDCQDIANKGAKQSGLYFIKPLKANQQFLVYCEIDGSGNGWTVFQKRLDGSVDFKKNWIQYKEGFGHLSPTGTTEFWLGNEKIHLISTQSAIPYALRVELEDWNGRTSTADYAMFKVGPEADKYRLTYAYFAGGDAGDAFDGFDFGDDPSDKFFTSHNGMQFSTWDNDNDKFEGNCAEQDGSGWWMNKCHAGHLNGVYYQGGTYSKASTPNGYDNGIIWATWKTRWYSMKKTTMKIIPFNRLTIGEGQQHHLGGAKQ

| relative affinity/activity in fibrin polymerization assay (fibrin polymerization) | peak height after three washes relative to peak height after one wash (human fibrinogen) [%] | inhibition of fibrin polymerization (fibrin polymerization; optical density 350 nm at 2 minutes after thrombin addition) | Compound |
| --- | --- | --- | --- |
| less active than GPRL |  |  | N=C(N)NCCC[C@H](NC(=O)[C@@H]1CCCN1C(=O)CN)C(=O)N[C@@H](Cc1ccccc1)C(=O)O [GPRF] (H-GPRF-OH) |
| less than that of GPR or GPRP | 4.8 | inhibited fibrin polymerization | CC(C)C[C@H](NC(=O)[C@H](CCCNC(=N)N)NC(=O)[C@@H]1CCCN1C(=O)CN)C(=O)O [GPRL] (H-GPRL-OH) |
|  | 10 |  | CC(C)C[C@H](N)C(=O)N1CCC[C@H]1C(=O)N[C@@H](CCCCN)C(=O)O [LPK] (H-Leu-Pro-Lys-OH) |
|  | 48 |  | DKPDNF [DKPDNF] |
